Results on one substance are retold here after article PMC8584237, “Helicobacter pylori Neutrophil-Activating Protein Directly Interacts with and Activates Toll-like Receptor 2 to Induce the Secretion of Interleukin-8 from Neutrophils and ATRA-Induced Differentiated HL-60 Cells” (International Journal of Molecular Sciences, 2021).

By UniProt entry, the sequences of proteins in these tests, tags left out. Residues count along the entry.
UniProt P43313: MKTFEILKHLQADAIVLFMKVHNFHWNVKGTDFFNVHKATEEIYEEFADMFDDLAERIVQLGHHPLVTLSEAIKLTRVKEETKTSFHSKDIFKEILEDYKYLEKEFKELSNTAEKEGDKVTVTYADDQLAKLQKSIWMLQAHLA
UniProt O00206, residues 24-631: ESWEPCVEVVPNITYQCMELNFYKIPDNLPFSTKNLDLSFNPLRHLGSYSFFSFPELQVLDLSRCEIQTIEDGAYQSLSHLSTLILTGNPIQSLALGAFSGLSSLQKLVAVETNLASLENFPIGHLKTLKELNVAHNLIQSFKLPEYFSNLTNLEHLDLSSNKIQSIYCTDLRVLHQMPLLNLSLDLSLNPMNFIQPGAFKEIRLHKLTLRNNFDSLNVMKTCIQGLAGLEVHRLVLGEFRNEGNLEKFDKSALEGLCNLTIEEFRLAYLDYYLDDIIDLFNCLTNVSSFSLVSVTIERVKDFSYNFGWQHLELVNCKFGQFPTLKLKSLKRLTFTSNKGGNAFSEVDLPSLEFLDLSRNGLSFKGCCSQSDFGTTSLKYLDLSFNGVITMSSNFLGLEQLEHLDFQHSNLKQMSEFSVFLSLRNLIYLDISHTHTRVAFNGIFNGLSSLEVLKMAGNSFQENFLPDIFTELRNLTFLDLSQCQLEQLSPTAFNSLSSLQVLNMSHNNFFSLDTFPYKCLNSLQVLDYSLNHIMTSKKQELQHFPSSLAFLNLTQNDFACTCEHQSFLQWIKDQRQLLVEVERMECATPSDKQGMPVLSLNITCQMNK

These are yes or no findings as the source states them, for the method shown.

The target of the assay is Helicobacter pylori neutrophil-activating protein (H. pylori strain 26695) (UniProt P43313). The assay is described as follows: ELISA; ELISA-based solid-phase binding assay: 0.05 μg HP-NAP coated on MaxiSorp wells (carbonate-bicarbonate buffer pH 9.6, 4 °C overnight), blocked with 1% BSA; TLR2-10xHis or TLR4-10xHis added at 0.078125-2.5 μg in 100 µL PBS-T with 1% BSA, room temperature 2 h; detected with anti-6x His tag antibody, OD 450 nm; both purified. In general terms: ELISA stands for enzyme-linked immunosorbent assay.

Consider “Recombinant human TLR4 protein Glu24-Lys631, with a C-terminal 10-His tag (from UniProt O00206 24-631) (receptor)”, for which the binding result is listed as “no binding (tested: up to 2.5 μg)”.
